In PMC4682425:
Results are given in words; binding and its absence hold for the method and conditions named. For some of these results: Binding seen in cells or lysates may run through a third protein. Some results given as binding are weak or reduced against the parent protein; the word gives no strength.

By UniProt entry, the sequences of proteins in these tests, tags left out. Where a name states a change or a piece, a line headed by the entry shows the natural chain unless it says otherwise. Residues count along the entry.
UniProt Q8LDP4, residues 24-201: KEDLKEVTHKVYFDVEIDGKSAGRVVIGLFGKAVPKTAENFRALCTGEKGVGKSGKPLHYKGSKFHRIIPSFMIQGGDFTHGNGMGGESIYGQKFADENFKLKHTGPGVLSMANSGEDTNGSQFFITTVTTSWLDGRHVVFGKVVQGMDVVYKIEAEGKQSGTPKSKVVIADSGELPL
UniProt Q9SP02: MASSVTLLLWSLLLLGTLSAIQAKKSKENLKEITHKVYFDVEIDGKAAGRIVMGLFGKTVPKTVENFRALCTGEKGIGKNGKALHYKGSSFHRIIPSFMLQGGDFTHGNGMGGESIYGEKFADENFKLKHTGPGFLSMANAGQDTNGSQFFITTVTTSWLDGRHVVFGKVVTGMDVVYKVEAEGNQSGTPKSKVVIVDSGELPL
AtCYP20-1 mature protein (amino acids 21-204), yeast two-hybrid bait: residues 21-204 of Q9SP02
AtCYP20-1 full length, BiFC construct in pSPYNE-35S: residues 24-204 of Q9SP02

Experiments:
[1] = target: AtCYP19-4 mature protein (amino acids 24-201), yeast two-hybrid bait (Arabidopsis thaliana) (UniProt Q8LDP4); experiment: two-hybrid; pGBK7 constructs (CYPs) and pGADT7 constructs (AtRCN1, AtGNOM-F, AtGNOM-N) co-transformed in yeast AH109; growth on SD/-WLH + 1.5 mM 3-AT; empty pGADT7 as negative control
[2] = target: AtCYP20-1 mature protein (amino acids 21-204), yeast two-hybrid bait (Arabidopsis thaliana) (UniProt Q9SP02); experiment: as above
[3] = target: AtCYP19-4 full length, BiFC construct in pSPYNE-35S (Arabidopsis thaliana) (UniProt Q8LDP4); experiment: split reporter; BiFC: CYPs in pSPYNE-35S and AtRCN1 in pSPYCE-35S co-infiltrated with the P19 silencing suppressor into 4-week-old N. benthamiana leaves; yellow fluorescent protein fluorescence at 24-48 h post-infiltration, confocal microscopy
[4] = target: AtCYP20-1 full length, BiFC construct in pSPYNE-35S (Arabidopsis thaliana) (UniProt Q9SP02); experiment: as above

Row | binding [1] | binding [2] | binding [3] | binding [4] | Binder
1 | binds | binds |  |  | AtRCN1 full-length coding region, yeast two-hybrid prey (protein, UniProt Q38845 1-588) MAMVDEPLYPIAVLIDELKNDDIQLRLNSIRRLSTIARALGEERTRKELIPFLSENSDDDDEVLLAMAEELGVFIPFVGGIEFAHVLLPPLESLCTVEETCVREKAVESLCKIGSQMKENDLVESFVPLVKRLAGGEWFAARVSACGIFHVAYQGCTDVLKTELRATYSQLCKDDMPMVRRAAASNLGKFATTVESTFLIAEIMTMFDDLTKDDQDSVRLLAVEGCAALGKLLEPQDCVARILPVIVNFSQDKSWRVRYMVANQLYELCEAVGPDCTRTDLVPAYVRLLRDNEAEVRIAAAGKVTKFCRLLNPELAIQHILPCVKELSSDSSQHVRSALASVIMGMAPILGKDSTIEHLLPIFLSLLKDEFPDVRLNIISKLDQVNQVIGIDLLSQSLLPAIVELAEDRHWRVRLAIIEYVPLLASQLGIGFFDDKLGALCMQWLQDKVYSIREAAANNLKRLAEEFGPEWAMQHLVPQVLDMVNNPHYLHRMMVLRAISLMAPVMGSEITCSKFLPVVVEASKDRVPNIKFNVAKLLQSLIPIVDQSVVDKTIRQCLVDLSEDPDVDVRYFANQALNSIDGSTAAQS
2 |  |  | binds | binds | AtRCN1, BiFC construct in pSPYCE-35S (protein, UniProt Q38845 1-588) MAMVDEPLYPIAVLIDELKNDDIQLRLNSIRRLSTIARALGEERTRKELIPFLSENSDDDDEVLLAMAEELGVFIPFVGGIEFAHVLLPPLESLCTVEETCVREKAVESLCKIGSQMKENDLVESFVPLVKRLAGGEWFAARVSACGIFHVAYQGCTDVLKTELRATYSQLCKDDMPMVRRAAASNLGKFATTVESTFLIAEIMTMFDDLTKDDQDSVRLLAVEGCAALGKLLEPQDCVARILPVIVNFSQDKSWRVRYMVANQLYELCEAVGPDCTRTDLVPAYVRLLRDNEAEVRIAAAGKVTKFCRLLNPELAIQHILPCVKELSSDSSQHVRSALASVIMGMAPILGKDSTIEHLLPIFLSLLKDEFPDVRLNIISKLDQVNQVIGIDLLSQSLLPAIVELAEDRHWRVRLAIIEYVPLLASQLGIGFFDDKLGALCMQWLQDKVYSIREAAANNLKRLAEEFGPEWAMQHLVPQVLDMVNNPHYLHRMMVLRAISLMAPVMGSEITCSKFLPVVVEASKDRVPNIKFNVAKLLQSLIPIVDQSVVDKTIRQCLVDLSEDPDVDVRYFANQALNSIDGSTAAQS
